The record followed here is PMC7566517.

Results are given in words; binding and its absence hold for the method and conditions named. Sequences can lack the tags named with a protein.

This experiment has as its target NRG1-MFc fusion protein (NRG1 EGF domain fused with monomeric Fc) (human) (UniProt Q02297). The experiment in a line: SEC-MALS; analytical SEC-MALS after single-step protein A purification; both purified. For orientation: SEC sorts molecules by how far they enter the pores of the column.

B1: NRG1-MFc fusion protein (NRG1 EGF domain fused with monomeric Fc) (Fc fusion, UniProt Q02297-6 175-229)
chain: GTSHLVKCAEKEKTFCVNGGECFMVKDLSNPSRYLCKCPNEFTGDRCQNYVMASF
As for B1, the binding result is recorded as “no binding”.
